Reference: patent US20170290876A1
Results are given in words; binding and its absence hold for the method and conditions named. Some binding calls cover weakened binding; strength is not graded here. Values belong to the binder of their own block, whether it stands above or below them.

The chains behind the UniProt entries cited, without tags or fusion partners. Where a name states a change or a piece, a line headed by the entry shows the natural chain unless it says otherwise.
UniProt P15692: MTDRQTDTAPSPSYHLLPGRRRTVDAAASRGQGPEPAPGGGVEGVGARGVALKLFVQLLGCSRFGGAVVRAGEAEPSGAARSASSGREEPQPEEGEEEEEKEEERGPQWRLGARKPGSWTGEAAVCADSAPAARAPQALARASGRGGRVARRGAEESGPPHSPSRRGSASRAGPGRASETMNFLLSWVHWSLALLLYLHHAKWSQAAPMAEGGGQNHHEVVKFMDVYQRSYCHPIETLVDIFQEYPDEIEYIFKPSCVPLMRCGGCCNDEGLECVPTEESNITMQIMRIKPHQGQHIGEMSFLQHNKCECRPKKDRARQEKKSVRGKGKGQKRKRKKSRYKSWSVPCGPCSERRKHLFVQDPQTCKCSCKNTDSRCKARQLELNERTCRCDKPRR

Biological target: human VEGF (human) (UniProt P15692)
Test: Biacore SPR

binding: binds
B1: HC4 (Fab, V domains shown)
VH: EVQLVESGGGLVQPGGSLRLSCTASGFSLTNYYYMTWVRQAPGKGLEWVGFIDPQNDPYYATWAKGRFTISRDNSKNTLYLQMNSLRAEDTAVYYCAGGNHNSGWGLNIWGQGTLVTVSS
VL: EIVMTQSPSTLSASVGDRVIITCQASEIIHSWLAWYQQKPGKAPKLLIYLASTLASGVPSRFSGSGSGAEFTLTISSLQPDDFATYYCQNVYLASTNGANFGQGTKLTVLK

binding: binds
B2: HC4T (Fab, V domains shown)
VH: B1 VH
VL: B1 VL
